# Test results: the supplement of paper PMC8728848
# The list shows a part of the results.
# B1: Gal 10 (Homo sapiens), Q05315 (protein)
# chain: MSLLPVPYTEAASLSTGSTVTIKGRPLVCFLNEPYLQVDFHTEMKEESDIVFHFQVCFGRRVVMNSREYGAWKQQVESKNMPFQDGQEFELSISVLPDKYQVMVNGQSSYTFDHRIKPEAVKMVQVWRDISLTKFNVSYLKR
# Key:
# Test in all cases: glycan array binding signal (z-score within array); higher = stronger binding
# Details in all cases: glycan notation: IUPAC condensed, linker removed
# [1] = target: Gal6S(b1-4)Glc
# Procedure, shortened: (§1)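 Glycan array data came from 3228 arrays in the Consortium for Functional Glycomics database, and only arrays with an available protein sequence were kept. Glycan names were put into IUPAC-condensed notation, and columns mapping to the same glycan were averaged. The binding signal is a within-array Z-score, averaged across arrays of one protein sequence run at different concentrations or buffers and across linkers. A negative Z-score can be read as non-binding.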
# [2] = target: Gal6S(b1-4)Glc6S
# Procedure, shortened: as §1
# [3] = target: Gal6S(b1-4)GlcNAc
# Procedure, shortened: as §1
# [4] = target: Gal6S(b1-4)GlcNAc6S
# Procedure, shortened: as §1
# [5] = target: GalNAc(a1-3)Gal
# Procedure, shortened: as §1
# [6] = target: GalNAc(a1-3)GalNAc
# Procedure, shortened: as §1
# [7] = target: GalNAc(a1-3)GalNAc(a1-3)Gal(a1-4)Gal(b1-4)GlcNAc
# Procedure, shortened: as §1
# [8] = target: GalNAc(a1-3)GalNAc(b1-3)Gal(a1-4)Gal(b1-4)Glc
# Procedure, shortened: as §1
# [9] = target: GalNAc(a1-3)GalNAc(b1-3)Gal(a1-4)Gal(b1-4)GlcNAc
# Procedure, shortened: as §1
# [10] = target: GalNAc(b1-3)Gal
# Procedure, shortened: as §1
# [11] = target: GalNAc(b1-3)Gal(a1-4)Gal(b1-4)GlcNAc
# Procedure, shortened: as §1
# [12] = target: GalNAc(b1-3)Gal(a1-4)Gal(b1-4)GlcNAc(b1-3)Gal(b1-4)Glc
# Procedure, shortened: as §1
# [13] = target: GalNAc(b1-3)Gal(a1-6)Gal(b1-4)Glc
# Procedure, shortened: as §1
# [14] = target: GalNAc(b1-3)GalNAc
# Procedure, shortened: as §1
# [15] = target: GalNAc(b1-3)GlcNAc
# Procedure, shortened: as §1
# [16] = target: GalNAc(b1-4)Gal(b1-4)Glc
# Procedure, shortened: as §1
# [17] = target: GalNAc(b1-4)GlcNAc
# Procedure, shortened: as §1
# [18] = target: GalNAc(b1-4)GlcNAc(b1-2)Man
# Procedure, shortened: as §1
# [19] = target: GalNAc(b1-4)GlcNAc(b1-2)Man(a1-3)[GalNAc(b1-4)GlcNAc(b1-2)Man(a1-6)]Man(b1-4)GlcNAc(b1-4)GlcNAc
# Procedure, shortened: as §1
# [20] = target: GalNAc(b1-4)GlcNAc(b1-3)GalNAc(b1-4)GlcNAc
# Procedure, shortened: as §1
# [21] = target: GalNAc(b1-4)GlcNAc6S
# Procedure, shortened: as §1
# [22] = target: GalNAc(b1-6)GalNAc
# Procedure, shortened: as §1
# [23] = target: GalNAc3S(b1-4)GlcNAc
# Procedure, shortened: as §1
# [24] = target: GalNAc3S(b1-4)GlcNAc3S
# Procedure, shortened: as §1
# [25] = target: GalNAc3S(b1-4)[Fuc(a1-3)]GlcNAc
# Procedure, shortened: as §1
# [26] = target: GalNAc4S6S(b1-4)GlcNAc
# Procedure, shortened: as §1
# [27] = target: GalNAc6S(b1-4)GlcNAc
# Procedure, shortened: as §1
# [28] = target: Glc(a1-4)Glc
# Procedure, shortened: as §1
# [29] = target: Glc(a1-4)Glc(a1-4)Glc(a1-4)Glc
# Procedure, shortened: as §1
# [30] = target: Glc(a1-6)Glc(a1-6)Glc
# Procedure, shortened: as §1
# [31] = target: Glc(a1-6)Glc(a1-6)Glc(a1-6)Glc
# Procedure, shortened: as §1
# [32] = target: Glc(b1-4)Glc
# Procedure, shortened: as §1
# [33] = target: Glc(b1-6)Glc
# Procedure, shortened: as §1
# [34] = target: GlcA(b1-3)Gal
# Procedure, shortened: as §1
# [35] = target: GlcA(b1-3)GlcNAc
# Procedure, shortened: as §1
# [36] = target: GlcA(b1-6)Gal
# Procedure, shortened: as §1
# [37] = target: GlcA3S(b1-3)Gal(b1-4)GlcNAc(b1-2)Man
# Procedure, shortened: as §1
# [38] = target: GlcA3S(b1-3)Gal(b1-4)GlcNAc(b1-3)Gal(b1-4)Glc
# Procedure, shortened: as §1
# [39] = target: GlcNAc(a1-3)Gal(b1-4)GlcNAc
# Procedure, shortened: as §1
# [40] = target: GlcNAc(a1-4)Gal(b1-3)GlcNAc
# Procedure, shortened: as §1
# [41] = target: GlcNAc(a1-4)Gal(b1-4)GalNAc
# Procedure, shortened: as §1
# [42] = target: GlcNAc(a1-4)Gal(b1-4)GlcNAc
# Procedure, shortened: as §1
# [43] = target: GlcNAc(a1-4)Gal(b1-4)GlcNAc(b1-3)Gal(b1-4)Glc
# Procedure, shortened: as §1
# [44] = target: GlcNAc(a1-4)Gal(b1-4)GlcNAc(b1-3)Gal(b1-4)GlcNAc
# Procedure, shortened: as §1
# [45] = target: GlcNAc(a1-4)Gal(b1-4)GlcNAc(b1-3)Gal(b1-4)GlcNAc(b1-3)Gal(b1-4)GlcNAc
# Procedure, shortened: as §1
binder,measurement,setting,value
B1,glycan array binding signal (z-score),[1],-0.181
same,glycan array binding signal (z-score),[2],-0.014
same,glycan array binding signal (z-score),[3],-0.568
same,glycan array binding signal (z-score),[4],0.208
same,glycan array binding signal (z-score),[5],-0.104
same,glycan array binding signal (z-score),[6],-0.834
same,glycan array binding signal (z-score),[7],-0.788
same,glycan array binding signal (z-score),[8],0.071
same,glycan array binding signal (z-score),[9],0.054
same,glycan array binding signal (z-score),[10],-0.012
same,glycan array binding signal (z-score),[11],-0.318
same,glycan array binding signal (z-score),[12],-1.07
same,glycan array binding signal (z-score),[13],-0.345
same,glycan array binding signal (z-score),[14],-0.693
same,glycan array binding signal (z-score),[15],-0.501
same,glycan array binding signal (z-score),[16],2.27
same,glycan array binding signal (z-score),[17],-0.046
same,glycan array binding signal (z-score),[18],-0.146
same,glycan array binding signal (z-score),[19],0.225
same,glycan array binding signal (z-score),[20],-0.43
same,glycan array binding signal (z-score),[21],0.088
same,glycan array binding signal (z-score),[22],1.06
same,glycan array binding signal (z-score),[23],-0.035
same,glycan array binding signal (z-score),[24],-0.463
same,glycan array binding signal (z-score),[25],-0.411
same,glycan array binding signal (z-score),[26],0.312
same,glycan array binding signal (z-score),[27],-0.433
same,glycan array binding signal (z-score),[28],-0.826
same,glycan array binding signal (z-score),[29],-0.616
same,glycan array binding signal (z-score),[30],-0.465
same,glycan array binding signal (z-score),[31],0.817
same,glycan array binding signal (z-score),[32],-0.17
same,glycan array binding signal (z-score),[33],0.153
same,glycan array binding signal (z-score),[34],0.207
same,glycan array binding signal (z-score),[35],0.335
same,glycan array binding signal (z-score),[36],-0.265
same,glycan array binding signal (z-score),[37],-0.731
same,glycan array binding signal (z-score),[38],-0.278
same,glycan array binding signal (z-score),[39],0.489
same,glycan array binding signal (z-score),[40],0.122
same,glycan array binding signal (z-score),[41],0.835
same,glycan array binding signal (z-score),[42],-0.744
same,glycan array binding signal (z-score),[43],-0.161
same,glycan array binding signal (z-score),[44],0.196
same,glycan array binding signal (z-score),[45],0.459

# Two entries from above, tab-delimited.
binder	measurement	setting	value
B1	glycan array binding signal (z-score)	[24]	-0.463
same	glycan array binding signal (z-score)	[25]	-0.411
